Measurements reported in US20240327372A1, “PREPARATION OF PHENE[…] […] STEREOISOMERS THEREOF AND PRECURSORS THEREOF” (priority 2022, published 2024).
Structures can show the parent of a compound that is named as a salt. The name of at least one read-out is uncertain.

Protein sequences, listed by entry. Tags and fused reporters are not part of them. Lines headed by an entry give the natural chain unless they say otherwise; changes in a name come on top.
UniProt Q12809: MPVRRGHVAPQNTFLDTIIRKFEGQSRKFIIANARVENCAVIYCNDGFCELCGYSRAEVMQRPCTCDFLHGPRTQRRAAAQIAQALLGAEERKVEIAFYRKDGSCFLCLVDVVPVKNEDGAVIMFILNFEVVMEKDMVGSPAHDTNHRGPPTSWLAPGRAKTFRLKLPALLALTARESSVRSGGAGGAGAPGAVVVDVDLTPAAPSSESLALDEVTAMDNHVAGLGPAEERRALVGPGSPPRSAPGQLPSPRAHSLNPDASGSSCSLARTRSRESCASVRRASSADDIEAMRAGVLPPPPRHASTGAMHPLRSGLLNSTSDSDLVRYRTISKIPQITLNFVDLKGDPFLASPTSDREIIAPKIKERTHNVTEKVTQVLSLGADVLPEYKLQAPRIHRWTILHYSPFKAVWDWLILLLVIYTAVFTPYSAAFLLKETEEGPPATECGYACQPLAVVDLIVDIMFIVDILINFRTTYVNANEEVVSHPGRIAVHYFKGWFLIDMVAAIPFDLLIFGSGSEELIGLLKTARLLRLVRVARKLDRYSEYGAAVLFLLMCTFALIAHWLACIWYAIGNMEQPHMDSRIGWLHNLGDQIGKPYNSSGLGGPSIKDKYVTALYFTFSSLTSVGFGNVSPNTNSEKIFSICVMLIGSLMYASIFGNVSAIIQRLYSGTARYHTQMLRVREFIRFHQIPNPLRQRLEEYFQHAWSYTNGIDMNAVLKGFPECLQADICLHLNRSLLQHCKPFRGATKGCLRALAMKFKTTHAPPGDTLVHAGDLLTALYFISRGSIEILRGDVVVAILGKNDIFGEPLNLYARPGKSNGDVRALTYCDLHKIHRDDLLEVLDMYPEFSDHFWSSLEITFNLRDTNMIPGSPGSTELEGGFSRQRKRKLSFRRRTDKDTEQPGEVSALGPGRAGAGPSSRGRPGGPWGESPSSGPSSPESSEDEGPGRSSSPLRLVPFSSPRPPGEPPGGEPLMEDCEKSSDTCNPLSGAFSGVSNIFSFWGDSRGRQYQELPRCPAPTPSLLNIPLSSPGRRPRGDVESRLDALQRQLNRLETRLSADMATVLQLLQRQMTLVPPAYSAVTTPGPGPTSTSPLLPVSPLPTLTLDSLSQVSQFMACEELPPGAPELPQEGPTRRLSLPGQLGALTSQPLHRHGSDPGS

Target: hERG (Homo sapiens (Human), UniProt Q12809)
Experiment: hERG Potassium Channel Assay, Qube APC
Format: cell-based
Details: Antagonist mode, test compound
Method: Where presented, IC50 values were determined by a non-linear, least squares regression analysis.
Recombinant HEK-293 cells stably transfected with human Nav1.5 cDNA, recombinant HEK293 cell line expressing the human Cav1.2 (L-type voltage gated calcium channel, hCav1.2 α1C/β2a/α2δ1, and recombinant CHO-K1 cells stably transfected with human hERG cDNA were used separately in each of these assays.
hERG Potassium Channel Assay—Qube APC After whole cell configuration is achieved, the cells are held at −80 mV. Cells are held at this voltage for 50 ms to measure the leak current, which is subtracted from the tail current on-line. The cells are depolarized to +40 mV for 500 ms and then to −80 mV over a 100 ms ramp to elicit the hERG tail current. This paradigm is delivered once every 8 s to monitor the current amplitude.

CNC(C)C(=O)c1ccc2c(c1)OCO2 (stereo not shown) [Methylone HCl, methylone HCl]
Estimated IC50: N/C (N/C indicates observed mean inhibition was <25%)
